In paper PMC7081349:
Results are given in words; binding and its absence hold for the method and conditions named. For part of these data: Binding seen in cells or lysates may run through a third protein. Some binding calls cover weakened binding; strength is not graded here.

Protein sequences, listed by entry. Tags and fused reporters are not part of them. Lines headed by an entry give the natural chain unless they say otherwise; changes in a name come on top. Residues count along the entry.
UniProt Q00987: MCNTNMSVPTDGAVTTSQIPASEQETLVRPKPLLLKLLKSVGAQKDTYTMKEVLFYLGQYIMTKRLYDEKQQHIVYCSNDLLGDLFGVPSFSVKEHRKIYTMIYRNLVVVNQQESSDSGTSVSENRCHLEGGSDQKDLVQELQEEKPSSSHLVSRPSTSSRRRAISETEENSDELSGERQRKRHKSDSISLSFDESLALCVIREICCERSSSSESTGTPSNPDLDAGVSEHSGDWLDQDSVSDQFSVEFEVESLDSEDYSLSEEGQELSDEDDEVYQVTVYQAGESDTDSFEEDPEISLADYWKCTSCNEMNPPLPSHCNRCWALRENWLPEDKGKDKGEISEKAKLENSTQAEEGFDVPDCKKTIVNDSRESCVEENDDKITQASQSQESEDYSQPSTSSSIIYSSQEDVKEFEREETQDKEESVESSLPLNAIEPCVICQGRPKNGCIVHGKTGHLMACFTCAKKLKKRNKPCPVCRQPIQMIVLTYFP
GST-Mdm2-100T (Y100-P491): residues 100-491 of Q00987
UniProt O60260: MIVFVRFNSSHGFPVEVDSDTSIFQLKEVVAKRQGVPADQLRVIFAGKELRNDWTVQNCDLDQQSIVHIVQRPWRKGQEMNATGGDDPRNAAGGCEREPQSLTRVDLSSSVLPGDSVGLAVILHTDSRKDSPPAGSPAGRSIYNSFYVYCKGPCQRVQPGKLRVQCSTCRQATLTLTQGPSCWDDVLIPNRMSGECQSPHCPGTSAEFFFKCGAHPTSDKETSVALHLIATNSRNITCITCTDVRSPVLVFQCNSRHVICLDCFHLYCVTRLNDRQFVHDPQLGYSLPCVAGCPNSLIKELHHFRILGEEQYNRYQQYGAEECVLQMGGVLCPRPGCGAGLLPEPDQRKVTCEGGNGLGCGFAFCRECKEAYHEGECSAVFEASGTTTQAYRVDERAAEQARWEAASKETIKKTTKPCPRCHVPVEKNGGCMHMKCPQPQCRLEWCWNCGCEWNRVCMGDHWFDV

Assays:
HA-Mdm2 = HA-Mdm2 (UniProt Q00987); test: co-IP; HEK293 cells co-expressing HA-Mdm2 and Flag- or myc-parkin constructs; HA-Mdm2 precipitated with anti-HA, parkin detected by anti-Flag or anti-myc blot; buffer with 250 mM NaCl, 0.5% NP-40, 4 °C
[1] = biological target: GST-Mdm2-100T (Y100-P491) (UniProt Q00987); test: pull-down; GST-Mdm2 (Y100-P491) or GST (5 µg) held on glutathione-agarose; purified MBP-parkin or MBP (5 µg) added, 4 °C, 3 h; 20 mM Hepes pH 7.3, 150 mM NaCl; eluted with glutathione, blot with anti-MBP; both purified

binding (HA-Mdm2)	binding [1]	Substance
binds	–	myc-parkin (from UniProt O60260 1-465) (enzyme)
binds	–	Flag-parkin, full-length WT (from UniProt O60260 1-465) (enzyme)
–	binds	MBP-parkin (from UniProt O60260 1-465) (enzyme)
